In the supplement of paper PMC12067093, “Discovery and optimisation of a covalent ligand for TRIM25 and its application to targeted protein ubiquitination” (Chemical Science, 2025):
The list shows a part of the results.

Protein sequences, listed by entry. Tags and fused reporters are not part of them. Lines headed by an entry give the natural chain unless they say otherwise; changes in a name come on top.
UniProt A6NDU8: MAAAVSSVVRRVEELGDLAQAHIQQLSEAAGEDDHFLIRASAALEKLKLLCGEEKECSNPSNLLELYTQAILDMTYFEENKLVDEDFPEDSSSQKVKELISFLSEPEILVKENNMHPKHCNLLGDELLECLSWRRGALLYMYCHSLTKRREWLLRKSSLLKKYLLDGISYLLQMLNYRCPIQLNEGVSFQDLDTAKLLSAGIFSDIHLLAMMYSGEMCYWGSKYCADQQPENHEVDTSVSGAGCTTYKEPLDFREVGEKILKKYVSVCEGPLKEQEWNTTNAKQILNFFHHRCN
UniProt Q9BX63: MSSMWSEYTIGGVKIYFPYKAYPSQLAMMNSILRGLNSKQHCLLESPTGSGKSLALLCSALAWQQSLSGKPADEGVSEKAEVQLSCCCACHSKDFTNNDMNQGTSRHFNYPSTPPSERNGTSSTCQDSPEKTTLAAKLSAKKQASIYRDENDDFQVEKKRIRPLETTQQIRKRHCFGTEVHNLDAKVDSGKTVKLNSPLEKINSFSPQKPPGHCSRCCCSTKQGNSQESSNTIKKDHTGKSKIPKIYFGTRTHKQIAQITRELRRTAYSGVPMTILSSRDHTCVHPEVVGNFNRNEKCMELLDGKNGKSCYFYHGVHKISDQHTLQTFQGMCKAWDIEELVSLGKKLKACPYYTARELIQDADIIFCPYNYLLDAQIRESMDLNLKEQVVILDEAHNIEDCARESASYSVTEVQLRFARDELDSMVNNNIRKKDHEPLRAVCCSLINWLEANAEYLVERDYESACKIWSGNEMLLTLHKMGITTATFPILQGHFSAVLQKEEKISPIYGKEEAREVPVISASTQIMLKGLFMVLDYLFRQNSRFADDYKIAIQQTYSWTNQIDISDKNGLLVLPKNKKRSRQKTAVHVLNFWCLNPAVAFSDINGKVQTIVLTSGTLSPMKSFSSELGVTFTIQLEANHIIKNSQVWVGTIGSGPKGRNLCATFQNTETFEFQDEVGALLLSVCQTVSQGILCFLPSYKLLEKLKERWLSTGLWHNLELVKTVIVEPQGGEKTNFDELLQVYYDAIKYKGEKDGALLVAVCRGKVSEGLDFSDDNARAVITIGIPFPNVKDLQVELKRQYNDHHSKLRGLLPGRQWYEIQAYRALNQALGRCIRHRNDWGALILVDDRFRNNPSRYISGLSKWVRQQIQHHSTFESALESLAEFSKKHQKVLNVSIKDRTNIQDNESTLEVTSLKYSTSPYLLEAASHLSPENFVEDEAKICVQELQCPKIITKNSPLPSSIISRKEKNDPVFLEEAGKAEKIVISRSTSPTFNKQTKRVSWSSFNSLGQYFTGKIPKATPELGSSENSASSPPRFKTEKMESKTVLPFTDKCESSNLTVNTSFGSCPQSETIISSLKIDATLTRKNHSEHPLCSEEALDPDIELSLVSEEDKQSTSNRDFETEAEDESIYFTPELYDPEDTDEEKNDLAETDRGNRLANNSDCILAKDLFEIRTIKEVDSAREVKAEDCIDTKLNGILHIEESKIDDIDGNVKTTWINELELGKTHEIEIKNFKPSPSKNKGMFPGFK
UniProt Q9NPI1: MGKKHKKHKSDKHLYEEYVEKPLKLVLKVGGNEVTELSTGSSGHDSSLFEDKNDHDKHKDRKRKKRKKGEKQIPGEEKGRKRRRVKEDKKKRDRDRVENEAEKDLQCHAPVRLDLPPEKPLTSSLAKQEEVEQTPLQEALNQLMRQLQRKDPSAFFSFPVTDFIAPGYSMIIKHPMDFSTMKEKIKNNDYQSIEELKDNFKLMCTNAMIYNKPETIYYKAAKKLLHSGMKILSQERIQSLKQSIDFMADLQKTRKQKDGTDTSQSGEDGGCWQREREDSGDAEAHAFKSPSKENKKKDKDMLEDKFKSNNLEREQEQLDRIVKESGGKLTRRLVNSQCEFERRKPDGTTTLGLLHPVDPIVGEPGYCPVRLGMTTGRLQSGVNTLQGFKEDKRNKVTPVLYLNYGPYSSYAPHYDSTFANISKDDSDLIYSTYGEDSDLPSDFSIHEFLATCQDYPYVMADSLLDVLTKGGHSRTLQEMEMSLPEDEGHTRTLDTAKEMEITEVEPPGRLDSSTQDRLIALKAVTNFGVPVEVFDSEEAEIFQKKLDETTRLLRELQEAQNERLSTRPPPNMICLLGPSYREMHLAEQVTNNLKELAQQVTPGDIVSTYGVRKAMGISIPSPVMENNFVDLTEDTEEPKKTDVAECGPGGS
UniProt Q8N999, whole entry, looked up: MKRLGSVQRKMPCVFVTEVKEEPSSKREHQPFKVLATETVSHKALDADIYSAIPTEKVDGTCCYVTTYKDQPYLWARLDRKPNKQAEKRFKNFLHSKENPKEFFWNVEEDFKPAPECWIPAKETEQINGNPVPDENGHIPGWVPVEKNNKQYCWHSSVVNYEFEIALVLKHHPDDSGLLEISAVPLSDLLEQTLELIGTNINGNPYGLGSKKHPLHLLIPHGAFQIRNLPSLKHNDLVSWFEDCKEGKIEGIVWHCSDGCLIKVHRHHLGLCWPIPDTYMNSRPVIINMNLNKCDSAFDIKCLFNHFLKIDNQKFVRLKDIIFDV
UniProt Q13555: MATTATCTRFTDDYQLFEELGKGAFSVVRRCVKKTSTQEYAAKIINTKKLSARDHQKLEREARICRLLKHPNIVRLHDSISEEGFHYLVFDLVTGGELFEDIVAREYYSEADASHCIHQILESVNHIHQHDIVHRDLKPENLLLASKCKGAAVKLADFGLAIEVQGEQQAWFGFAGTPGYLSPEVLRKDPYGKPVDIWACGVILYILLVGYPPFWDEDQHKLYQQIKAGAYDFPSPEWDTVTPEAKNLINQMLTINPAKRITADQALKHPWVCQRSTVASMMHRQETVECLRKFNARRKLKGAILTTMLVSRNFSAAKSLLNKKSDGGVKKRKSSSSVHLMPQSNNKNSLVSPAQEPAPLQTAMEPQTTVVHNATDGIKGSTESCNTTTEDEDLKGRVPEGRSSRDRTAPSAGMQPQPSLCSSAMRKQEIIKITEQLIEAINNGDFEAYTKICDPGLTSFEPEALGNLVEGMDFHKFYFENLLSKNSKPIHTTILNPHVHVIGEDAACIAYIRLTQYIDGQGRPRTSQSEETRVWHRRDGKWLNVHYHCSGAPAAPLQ
UniProt Q5JPI3: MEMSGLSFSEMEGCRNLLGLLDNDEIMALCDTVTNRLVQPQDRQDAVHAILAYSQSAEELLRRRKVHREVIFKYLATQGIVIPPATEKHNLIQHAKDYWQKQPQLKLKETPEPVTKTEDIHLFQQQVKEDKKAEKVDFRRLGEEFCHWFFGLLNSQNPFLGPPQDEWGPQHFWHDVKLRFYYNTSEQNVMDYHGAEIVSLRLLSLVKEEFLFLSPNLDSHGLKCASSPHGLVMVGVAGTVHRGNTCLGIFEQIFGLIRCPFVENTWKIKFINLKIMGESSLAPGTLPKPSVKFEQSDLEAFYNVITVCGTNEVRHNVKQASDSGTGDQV
UniProt P55201: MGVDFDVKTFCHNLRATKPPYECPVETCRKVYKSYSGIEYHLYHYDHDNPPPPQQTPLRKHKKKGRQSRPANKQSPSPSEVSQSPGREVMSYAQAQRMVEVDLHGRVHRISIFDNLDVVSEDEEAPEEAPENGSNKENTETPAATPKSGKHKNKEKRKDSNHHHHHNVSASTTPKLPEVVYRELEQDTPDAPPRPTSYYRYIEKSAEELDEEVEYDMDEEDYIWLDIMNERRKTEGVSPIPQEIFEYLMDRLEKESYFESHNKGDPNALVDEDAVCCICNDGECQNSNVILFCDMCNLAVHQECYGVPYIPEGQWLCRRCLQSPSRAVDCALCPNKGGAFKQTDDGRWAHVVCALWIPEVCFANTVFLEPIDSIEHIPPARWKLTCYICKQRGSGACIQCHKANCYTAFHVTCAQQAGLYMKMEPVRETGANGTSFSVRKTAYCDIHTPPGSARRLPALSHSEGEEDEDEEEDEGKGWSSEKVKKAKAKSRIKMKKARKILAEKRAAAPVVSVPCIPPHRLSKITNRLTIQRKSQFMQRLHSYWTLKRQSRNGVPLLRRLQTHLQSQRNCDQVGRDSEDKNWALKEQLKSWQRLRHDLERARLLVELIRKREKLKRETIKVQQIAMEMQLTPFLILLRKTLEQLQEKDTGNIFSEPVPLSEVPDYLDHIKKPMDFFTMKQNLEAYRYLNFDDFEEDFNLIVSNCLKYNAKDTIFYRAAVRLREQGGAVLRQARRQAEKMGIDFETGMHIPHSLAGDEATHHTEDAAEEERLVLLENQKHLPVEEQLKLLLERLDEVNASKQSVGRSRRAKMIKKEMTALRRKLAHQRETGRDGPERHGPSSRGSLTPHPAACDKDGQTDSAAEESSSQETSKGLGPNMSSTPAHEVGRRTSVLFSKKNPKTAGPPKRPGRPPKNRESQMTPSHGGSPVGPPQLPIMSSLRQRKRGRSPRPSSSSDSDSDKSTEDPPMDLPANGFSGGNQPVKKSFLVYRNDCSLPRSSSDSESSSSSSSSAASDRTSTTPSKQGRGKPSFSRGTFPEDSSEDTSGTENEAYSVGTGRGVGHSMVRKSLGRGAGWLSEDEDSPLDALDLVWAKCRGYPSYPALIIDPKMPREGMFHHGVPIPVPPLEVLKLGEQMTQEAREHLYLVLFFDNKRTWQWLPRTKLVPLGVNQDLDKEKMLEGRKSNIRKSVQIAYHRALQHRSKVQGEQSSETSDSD
UniProt Q9HAS0: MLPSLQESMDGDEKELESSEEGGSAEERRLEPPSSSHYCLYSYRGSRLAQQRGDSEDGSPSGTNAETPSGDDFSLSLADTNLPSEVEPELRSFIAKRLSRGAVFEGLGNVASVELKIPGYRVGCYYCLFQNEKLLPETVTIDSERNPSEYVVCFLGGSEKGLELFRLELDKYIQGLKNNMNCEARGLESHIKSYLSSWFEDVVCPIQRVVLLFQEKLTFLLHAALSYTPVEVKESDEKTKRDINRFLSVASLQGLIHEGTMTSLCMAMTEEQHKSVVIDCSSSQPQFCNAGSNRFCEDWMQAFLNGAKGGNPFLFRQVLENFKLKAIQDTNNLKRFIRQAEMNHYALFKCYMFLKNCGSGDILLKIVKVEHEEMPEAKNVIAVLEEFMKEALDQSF
UniProt Q92994: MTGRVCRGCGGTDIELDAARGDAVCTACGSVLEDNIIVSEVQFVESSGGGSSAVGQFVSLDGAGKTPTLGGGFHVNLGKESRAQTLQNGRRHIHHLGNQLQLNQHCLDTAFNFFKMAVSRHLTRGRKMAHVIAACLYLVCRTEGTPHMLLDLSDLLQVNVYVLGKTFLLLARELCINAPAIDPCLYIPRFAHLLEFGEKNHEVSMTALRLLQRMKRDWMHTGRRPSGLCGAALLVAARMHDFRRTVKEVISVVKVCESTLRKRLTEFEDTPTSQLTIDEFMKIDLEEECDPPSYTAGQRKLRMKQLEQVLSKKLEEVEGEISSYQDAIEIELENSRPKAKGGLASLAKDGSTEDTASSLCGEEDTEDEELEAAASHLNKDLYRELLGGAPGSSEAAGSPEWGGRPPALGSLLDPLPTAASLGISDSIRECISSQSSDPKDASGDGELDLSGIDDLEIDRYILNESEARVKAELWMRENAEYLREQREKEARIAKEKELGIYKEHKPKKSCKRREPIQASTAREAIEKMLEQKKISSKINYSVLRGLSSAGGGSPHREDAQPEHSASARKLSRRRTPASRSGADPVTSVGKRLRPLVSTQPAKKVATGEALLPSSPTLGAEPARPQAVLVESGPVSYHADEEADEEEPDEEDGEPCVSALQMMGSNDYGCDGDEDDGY
UniProt Q9NSG2: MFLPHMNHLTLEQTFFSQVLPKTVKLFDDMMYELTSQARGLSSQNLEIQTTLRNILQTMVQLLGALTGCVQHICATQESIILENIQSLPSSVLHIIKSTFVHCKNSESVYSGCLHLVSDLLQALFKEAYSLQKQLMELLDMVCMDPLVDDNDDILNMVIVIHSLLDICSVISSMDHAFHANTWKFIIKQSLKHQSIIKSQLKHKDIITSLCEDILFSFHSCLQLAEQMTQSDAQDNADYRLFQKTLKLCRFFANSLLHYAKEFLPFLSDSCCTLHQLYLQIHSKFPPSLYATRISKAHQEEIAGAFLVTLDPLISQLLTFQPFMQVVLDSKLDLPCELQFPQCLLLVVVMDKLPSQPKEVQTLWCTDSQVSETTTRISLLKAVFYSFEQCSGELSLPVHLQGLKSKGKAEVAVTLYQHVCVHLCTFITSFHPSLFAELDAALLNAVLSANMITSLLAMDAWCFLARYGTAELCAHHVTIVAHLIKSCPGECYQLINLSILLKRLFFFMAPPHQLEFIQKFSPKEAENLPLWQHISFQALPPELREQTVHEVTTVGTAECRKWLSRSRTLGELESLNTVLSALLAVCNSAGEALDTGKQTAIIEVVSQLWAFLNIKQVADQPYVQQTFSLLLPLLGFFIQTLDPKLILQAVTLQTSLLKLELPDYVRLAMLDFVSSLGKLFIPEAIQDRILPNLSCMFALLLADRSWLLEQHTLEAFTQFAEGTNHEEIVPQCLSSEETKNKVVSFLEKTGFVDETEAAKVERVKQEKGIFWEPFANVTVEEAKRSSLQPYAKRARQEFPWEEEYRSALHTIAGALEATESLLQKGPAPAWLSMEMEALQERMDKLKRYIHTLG

Compound: CC1Cc2ccccc2N1C(=O)C1CCCN(C1)C(=O)CCl (mixture of isomers) [TRIM25 ligand 11 (diastereomer mixture)]
Assay: probe-labelled cysteine peptide fold change vs DMSO (competition) (log2 fold change); higher = less target engagement (more negative = stronger competition)
Conditions: 10 µM; THP-1; incubation time: 4 h
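Also: competitive chemoproteomic profiling in live THP-1 cells with an iodoacetamide desthiobiotin (IA-DTB) probe, comparing probe-labelled peptide intensities in compound-treated cells against DMSO-treated controls.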

Point of comparison: “BRD2_P25440_353_HCNGILK (UniProt P25440)”, “probe-labelled cysteine peptide fold change” value -0.0579. Against it:
- CALR_P27797_105_HEQNIDCGGGYVK (UniProt P27797) — higher, 0.00844
- CAMKK2_Q96RR4_397_IMCLHSK (UniProt Q96RR4) — higher, -0.0325
- C5orf51_A6NDU8_268_YVSVCEGPLK (UniProt A6NDU8) — higher, 0.0584
- BRIX1_Q8TDN6_52_HATAEEVEEEERDRIPGPVCK (UniProt Q8TDN6) — higher, -0.0245
- BRIP1_Q9BX63_310_SCYFYHGVHK (UniProt Q9BX63) — higher, 0.051
- BTK_Q06187_527_NCLVNDQGVVK (UniProt Q06187) — higher, 0.0973
- C9orf78_Q9NZ63_145_NAEDCLYELPENIR (UniProt Q9NZ63) — lower, -0.101
- BRD7_Q9NPI1_107_DLQCHAPVR (UniProt Q9NPI1) — higher, 0.127
- BRD1_O95696_86_ENSERPPVCLR (UniProt O95696) — lower, -0.0962
- C12orf29_Q8N999_13_KMPCVFVTEVK (UniProt Q8N999) — lower, -0.152
- BRCA1_P38398_226_AACEFSETDVTNTEHHQPSNNDLNTTEK (UniProt P38398) — higher, 0.105
- CAMK2D_Q13557_116+127_EYYSEADASHCIQQILESVNHCHLNGIVHR (UniProt Q13557) — higher, 0.0655
- CAMK2G_Q13555_549_WLNVHYHCSGAPAAPLQ (UniProt Q13555) — higher, 0.238
- C3orf38_Q5JPI3_259_CPFVENTWK (UniProt Q5JPI3) — higher, 0.0213
- BRPF1_P55201_413_ANCYTAFHVTCAQQAGLYMK (UniProt P55201) — higher, -0.0512
- BSG_P35613_203_VDSDDQWGEYSCVFLPEPMGTANIQLHGPPR (UniProt P35613) — higher, 0.108
- BRD4_O60885_607_CKPMSYEEK (UniProt O60885) — lower, -0.147
- BRI3_O95415_78_YPANSIVVVGGCPVCR (UniProt O95415) — lower, -0.0839
- C17orf75_Q9HAS0_265_FLSVASLQGLIHEGTMTSLCMAMTEEQHK (UniProt Q9HAS0) — higher, -0.00782
- BST1_Q10588_83_VALDKDPCSVLPSDYDLFINLSR (UniProt Q10588) — lower, -0.0736
- BUD31_P41223_101_KQGYENLCCLR (UniProt P41223) — lower, -0.06
- CAD_P27708_379_LCPPGIPTPGSGLPPPR (UniProt P27708) — higher, 0.241
- BUD31_P41223_137+139_IIECTHCGCR (UniProt P41223) — higher, 0.0997
- C12orf10_Q9HB07_56_IGTHNGTFHCDEALACALLR (UniProt Q9HB07) — higher, -0.0316
- CABIN1_Q9Y6J0_829_LTNNLIQVIDCSMAVQEEAK (UniProt Q9Y6J0) — higher, 0.0505
- BST1_Q10588_144_VADFLSWCR (UniProt Q10588) — higher, 0.0489
- BTK_Q06187_506_DVCEAMEYLESK (UniProt Q06187) — higher, 0.118
- BTK_Q06187_337_HYVVCSTPQSQYYLAEK (UniProt Q06187) — higher, -0.0303
- BPTF_Q12830_506_VQLAELIDCLDK (UniProt Q12830) — lower, -0.0858
- C5_P01031_1553_KQTACKPEIAYAYK (UniProt P01031) — higher, 0.466
- BTK_Q06187_154_YHPCFWIDGQYLCCSQTAK (UniProt Q06187) — lower, -0.132
- BTAF1_O14981_1626_QLLLDCGLGNGSTSESGTESVVAQHR (UniProt O14981) — higher, 0.329
- BUD31_P41223_139_IIECTHCGCR (UniProt P41223) — higher, 0.0412
- BRD7_Q9NPI1_646_KTDVAECGPGGS (UniProt Q9NPI1) — higher, -0.034
- BRAT1_Q6PJG6_54_TVTEGESSVVLLQEHPCLVELLSHVLK (UniProt Q6PJG6) — higher, 0.0628
- C1orf50_Q9BV19_144_EWGTSCPHDFLGAYK (UniProt Q9BV19) — lower, -0.0817
- BRF1_Q92994_229_RPSGLCGAALLVAAR (UniProt Q92994) — lower, -0.117
- C1orf112_Q9NSG2_559_EQTVHEVTTVGTAECR (UniProt Q9NSG2) — lower, -0.141
- BRIX1_Q8TDN6_52_IPGPVCK (UniProt Q8TDN6) — higher, -0.00413

Same assay, conditions: 50 µM; THP-1; incubation time: 4 h

Point of comparison: “BTK_Q06187_337_HYVVCSTPQSQYYLAEK (UniProt Q06187)”, “probe-labelled cysteine peptide fold change” value 0.00342. Against it:
- CALR_P27797_105_HEQNIDCGGGYVK (UniProt P27797) — lower, -0.0654
- CAMKK2_Q96RR4_397_IMCLHSK (UniProt Q96RR4) — lower, -0.137
- C5orf51_A6NDU8_268_YVSVCEGPLK (UniProt A6NDU8) — higher, 0.0286
- BRIX1_Q8TDN6_52_HATAEEVEEEERDRIPGPVCK (UniProt Q8TDN6) — lower, -0.238
- BRIP1_Q9BX63_310_SCYFYHGVHK (UniProt Q9BX63) — higher, 0.0323
- BTK_Q06187_527_NCLVNDQGVVK (UniProt Q06187) — higher, 0.0844
- C9orf78_Q9NZ63_145_NAEDCLYELPENIR (UniProt Q9NZ63) — lower, -0.43
- BRD7_Q9NPI1_107_DLQCHAPVR (UniProt Q9NPI1) — lower, -0.0376
- BRD1_O95696_86_ENSERPPVCLR (UniProt O95696) — lower, -0.3
- C12orf29_Q8N999_13_KMPCVFVTEVK (UniProt Q8N999) — lower, -0.15
- BRCA1_P38398_226_AACEFSETDVTNTEHHQPSNNDLNTTEK (UniProt P38398) — lower, -0.274
- CAMK2D_Q13557_116+127_EYYSEADASHCIQQILESVNHCHLNGIVHR (UniProt Q13557) — lower, -0.00265
- CAMK2G_Q13555_549_WLNVHYHCSGAPAAPLQ (UniProt Q13555) — lower, -0.121
- C3orf38_Q5JPI3_259_CPFVENTWK (UniProt Q5JPI3) — lower, -0.0363
- BRPF1_P55201_413_ANCYTAFHVTCAQQAGLYMK (UniProt P55201) — lower, -0.203
- BRD2_P25440_353_HCNGILK (UniProt P25440) — higher, 0.0332
- BSG_P35613_203_VDSDDQWGEYSCVFLPEPMGTANIQLHGPPR (UniProt P35613) — higher, 0.134
- BRD4_O60885_607_CKPMSYEEK (UniProt O60885) — lower, -0.0531
- BRI3_O95415_78_YPANSIVVVGGCPVCR (UniProt O95415) — lower, -0.117
- C17orf75_Q9HAS0_265_FLSVASLQGLIHEGTMTSLCMAMTEEQHK (UniProt Q9HAS0) — lower, -0.264
- BST1_Q10588_83_VALDKDPCSVLPSDYDLFINLSR (UniProt Q10588) — lower, -0.143
- BUD31_P41223_101_KQGYENLCCLR (UniProt P41223) — higher, 0.0769
- CAD_P27708_379_LCPPGIPTPGSGLPPPR (UniProt P27708) — lower, -0.136
- BUD31_P41223_137+139_IIECTHCGCR (UniProt P41223) — higher, 0.0487
- C12orf10_Q9HB07_56_IGTHNGTFHCDEALACALLR (UniProt Q9HB07) — lower, -0.134
- CABIN1_Q9Y6J0_829_LTNNLIQVIDCSMAVQEEAK (UniProt Q9Y6J0) — lower, -0.162
- BST1_Q10588_144_VADFLSWCR (UniProt Q10588) — higher, 0.29
- BTK_Q06187_506_DVCEAMEYLESK (UniProt Q06187) — higher, 0.0518
- BPTF_Q12830_506_VQLAELIDCLDK (UniProt Q12830) — higher, 0.228
- C5_P01031_1553_KQTACKPEIAYAYK (UniProt P01031) — higher, 0.416
- BTK_Q06187_154_YHPCFWIDGQYLCCSQTAK (UniProt Q06187) — lower, -0.193
- BTAF1_O14981_1626_QLLLDCGLGNGSTSESGTESVVAQHR (UniProt O14981) — higher, 0.149
- BUD31_P41223_139_IIECTHCGCR (UniProt P41223) — lower, -0.0128
- BRD7_Q9NPI1_646_KTDVAECGPGGS (UniProt Q9NPI1) — lower, -0.0794
- BRAT1_Q6PJG6_54_TVTEGESSVVLLQEHPCLVELLSHVLK (UniProt Q6PJG6) — lower, -0.125
- C1orf50_Q9BV19_144_EWGTSCPHDFLGAYK (UniProt Q9BV19) — higher, 0.0435
- BRF1_Q92994_229_RPSGLCGAALLVAAR (UniProt Q92994) — higher, 0.0817
- C1orf112_Q9NSG2_559_EQTVHEVTTVGTAECR (UniProt Q9NSG2) — higher, 0.031
- BRIX1_Q8TDN6_52_IPGPVCK (UniProt Q8TDN6) — lower, -0.114
